In patent publication US20090221610A1, “Compositions and Methods for Treating Cognitive Disorders” (Yale University, priority 2006, published 2009):
At least one structure is not confirmed: it was looked up by name or label, or the drawing left a doubt.

Tested on: PFC neurons
Assay: Single neuron recording and iontophoresis in monkeys performing a spatial WM (ODR) task
Type: in vivo, rhesus monkeys
Settings: iontophoresis 25 nA, example neuron
Protocol: Studies were performed on 4 adult male rhesus monkeys trained on the spatial ODR task (FIG. 3). Iontophoretic electrodes, neuronal recording and drug delivery were as described in (Wang et al., 2004) and also are provided in the Supplemental Material. Guanfacine, yohimbine, ZD7288(Tocris, Ellisville, Mo.) and etazolate (Sigma, St. Louis, Mo.) were dissolved at 0.01M in triple-distilled water (adjusted with HCl to pH 3.5-4.0). Sp-cAMP and Rp-cAMP (Sigma) were dissolved at 0.01M in triple-distilled water (adjusted with NaOH to pH 9). Two-way ANOVA was used to examine the spatial tuned task-related activity with regard to: (1) different periods of the task (cue, delay, response vs. fixation) and (2) different cue locations. One-way ANOVAs were employed to assess the effect of the drug application on cells displaying delay-related activity. Monkeys performed an oculomotor spatial delayed response (ODR) task, illustrated in FIG. 3A. The ODR task requires the monkey to make a memory-guided […] to a visuo-spatial target. Stimulus position was randomized over trials to ensure use of WM. Neurons were recorded from area 46 of the dorsolateral PFC (FIG. 3B) as the monkey performed the task. […]

CCOC(=O)c1cnc2c(cnn2CC)c1NN=C(C)C [Etazolate]
Effect on spatial delay-related firing: dramatically inhibited
